Reference: PubChem BioAssay AID248 (DTP/NCI, 2004)
The list does not hold the whole screen: it gathers tests that were run many times, whatever their T/C, doses with no T/C, and many T/C values between a quarter and a half above the control. Other doses and runs of a compound stand elsewhere. T/C is the treated group as % of the vehicle group. Some doses have a count of surviving animals in place of a T/C: the source files T/C as zero there, which appears to mark a toxic dose or a test without result, not a measured value. Some doses without a T/C left all or most animals alive at the check, yet need not have been tolerated: the source hardly ever lists a survival T/C far under the control, and the zero likely stands for such cases as well. Survivors were counted at the toxicity check, usually on the fifth day, unless a day is given; later deaths do not show. Schedule codes are those of the source, taken here to give the interval after Q, in days (D) or hours (H), and the number of doses after X. Some doses were run more than once; the values are given in rising order. Some schedules carry Z or #; the key to these is not given. For survival time, this PubChem deposit counts one and a half times the control or more as active, and values a quarter to a half above the control carry no call in these data; other NCI protocols may use other cut-offs. Some T/C values are followed by the survivors on the day toxicity was checked, most often the fifth; without a count, all were alive then.

Test system: L1210 leukemia ip in BDF1 mice, survival T/C
Assay: NCI In Vivo Anticancer Drug Screen. Data for tumor model L1210 Leukemia (intraperitoneal) in B6D2F1 (BDF1) mice
Conditions: T/C endpoint: mean survival time, higher T/C = longer survival
[1] = dose: 400.0 mg/kg/injection, schedule: Q01DX001 (ip), vehicle: Klucel (hydroxypropylcellulose) (HPC)
[2] = dose: 300.0 mg/kg/injection, schedule: Q01DX001 (ip), vehicle: saline
[3] = dose: 400.0 mg/kg/injection, schedule: Q01DX001 (ip), vehicle: saline
[4] = dose: 400.0 mg/kg/injection, schedule: Q04DX002 (ip), vehicle: Klucel (hydroxypropylcellulose) (HPC)
[5] = dose: 200.0 mg/kg/injection, schedule: Q01DX001 (ip), vehicle: Klucel (hydroxypropylcellulose) (HPC)
[6] = dose: 200.0 mg/kg/injection, schedule: Q01DX009 (ip), vehicle: saline
[7] = dose: 400.0 mg/kg/injection, schedule: Q01DX009 (ip), vehicle: saline
[8] = dose: 100.0 mg/kg/injection, schedule: Q01DX001 (ip), vehicle: carboxymethylcellulose (CMC)
[9] = dose: 400.0 mg/kg/injection, schedule: Q01DX001 (ip), vehicle: carboxymethylcellulose (CMC)
[10] = dose: 200.0 mg/kg/injection, schedule: Q04DX003 (ip), vehicle: saline with Tween-80

Compound: O=C(Cc1c(F)c(F)c(F)c(F)c1F)Nc1ccc(-c2nc3ccccc3s2)cc1
- survivor count [1]: 6 of 6
- survivor count (dose: 400.0 mg/kg/injection, schedule: Q01DX009 (ip), vehicle: Klucel (hydroxypropylcellulose) (HPC)): 2 of 3

Compound: NNC(=S)Nc1cccc(Cl)c1
- survivor count [2]: 0 of 6

Compound: N#CC1CNC(=S)N=C1c1ccccc1 (stereo unspecified)
- survivor count (dose: 400.0 mg/kg/injection, schedule: Q04DX003 (ip), vehicle: Klucel (hydroxypropylcellulose) (HPC)): 1 of 6

Compound: CNCCCN1c2ccccc2C(C)(C)c2ccccc21
- survivor count (dose: 200.0 mg/kg/injection, schedule: Q01DX001 (ip), vehicle: saline): 2 of 4
- survivor count [3]: 0 of 4

Compound: CC1(C)CN1P(=O)(Oc1ccc([N+](=O)[O-])cc1)N1CC1(C)C (stereo unspecified)
- survivor count [4]: 0 of 3

Compound: O=C(O)C(F)(F)C(F)(Cl)C(F)(F)C(F)(Cl)C(F)(F)C(F)(Cl)C(F)(F)Cl (stereo unspecified)
- survivor count [3]: 0 of 6

Compound: O=C(NC(=S)Nc1cccc(Cl)c1)c1ccc(Cl)cc1Cl
- survivor count (dose: 100.0 mg/kg/injection, schedule: Q01DX009 (ip), vehicle: Klucel (hydroxypropylcellulose) (HPC)): 3 of 3
- survivor count [5]: 6 of 6
- survivor count [1]: 6 of 6

Compound: NC(N)=N/C(N)=N/NC(=O)c1ccncc1
- survivor count (dose: 210.0 mg/kg/injection, schedule: Q01DX Z (ip), vehicle: methylcellulose (MC)): 5 of 6

Compound: NC1CCC(c2ccccc2)(c2ccccc2)C1=O (stereo unspecified)
- survivor count [2]: 1 of 6

Compound: [CH3][Sn]([CH3])([CH3])[CH2]CCBr
- survivor count (dose: 6.25 mg/kg/injection, schedule: Q01DX009 (ip), vehicle: saline): 1 of 3
- survivor count (dose: 12.5 mg/kg/injection, schedule: Q01DX009 (ip), vehicle: saline): 0 of 3
- survivor count (dose: 25.0 mg/kg/injection, schedule: Q01DX009 (ip), vehicle: saline): 0 of 3
- survivor count (dose: 100.0 mg/kg/injection, schedule: Q01DX009 (ip), vehicle: saline): 3 of 3
- survivor count [6]: 2 of 3
- survivor count [7]: 0 of 3

Compound: CC(C)(C)C1CCC(O)C(Cl)C1 (stereo unspecified)
- survivor count [7]: 1 of 6

Compound: ClCCN(CCCl)c1ccc(CNCCCNCc2ccc(N(CCCl)CCCl)cc2Cl)c(Cl)c1
- survivor count [8]: 1 of 4
- survivor count (dose: 200.0 mg/kg/injection, schedule: Q01DX001 (ip), vehicle: carboxymethylcellulose (CMC)): 0 of 4
- survivor count [9]: 0 of 4

Compound: Cc1ccc2nc(NC(=O)N(CCCl)N=O)sc2c1
- T/C (dose: 35.0 mg/kg/injection, schedule: Q01DX001 (ip), vehicle: other): 127 % of control
- T/C (dose: 52.0 mg/kg/injection, schedule: Q01DX001 (ip), vehicle: other): 138 % of control
- T/C (dose: 79.0 mg/kg/injection, schedule: Q01DX001 (ip), vehicle: other): 138 % of control
- T/C (dose: 80.0 mg/kg/injection, schedule: Q01DX001 (ip), vehicle: carboxymethylcellulose (CMC)): 130 % of control
- T/C [8]: 140 % of control
- T/C (dose: 120.0 mg/kg/injection, schedule: Q01DX001 (ip), vehicle: carboxymethylcellulose (CMC)): 143 % of control
- T/C (dose: 177.0 mg/kg/injection, schedule: Q01DX001 (ip), vehicle: carboxymethylcellulose (CMC)): 145 % of control
- T/C (dose: 177.0 mg/kg/injection, schedule: Q01DX006 (ip), vehicle: other): 125 % of control
- T/C (dose: 177.0 mg/kg/injection, schedule: Q01DX009 (ip), vehicle: carboxymethylcellulose (CMC)): 144 % of control
- T/C (dose: 266.0 mg/kg/injection, schedule: Q01DX001 (ip), vehicle: carboxymethylcellulose (CMC)): 145 % of control
- T/C [9]: 140 % of control
- survivor count (dose: 400.0 mg/kg/injection, schedule: Q01DX009 (ip), vehicle: carboxymethylcellulose (CMC)): 6 of 6
- T/C (dose: 600.0 mg/kg/injection, schedule: Q01DX001 (ip), vehicle: carboxymethylcellulose (CMC)): 148 % of control [5 of 6 alive]
- survivor count (dose: 600.0 mg/kg/injection, schedule: Q01DX009 (ip), vehicle: carboxymethylcellulose (CMC)): 3 of 6

Compound: COc1ccc(/C=C\C(=O)NCCCCNC(=O)/C=C/c2ccc(OC)cc2)cc1
- survivor count [3]: 6 of 6

Compound: Cc1cc(NC(=O)Nc2cc([N+](=O)[O-])ccc2Cl)no1
- survivor count [5]: 6 of 6
- survivor count [1]: 5 of 6

Compound: CS(=O)(=O)c1ccc(Sc2ccc(S(C)(=O)=O)cc2)cc1
- survivor count (dose: 100.0 mg/kg/injection, schedule: Q04DX003 (ip), vehicle: saline with Tween-80): 3 of 6
- survivor count [10]: 1 of 6
- survivor count (dose: 400.0 mg/kg/injection, schedule: Q04DX003 (ip), vehicle: saline with Tween-80): 0 of 6

Compound: C=C(Br)CNC(C)=O
- survivor count (dose: 100.0 mg/kg/injection, schedule: Q01DX001 (ip), vehicle: Klucel (hydroxypropylcellulose) (HPC)): 1 of 6
- survivor count [5]: 0 of 6
- survivor count [6]: 0 of 6
- survivor count [1]: 0 of 6
- survivor count [7]: 0 of 6
- survivor count (dose: 400.0 mg/kg/injection, schedule: Q04DX003 (ip), vehicle: saline): 0 of 6

Compound: N=C(CCCc1ccccc1)SCc1ccccc1
- survivor count (dose: 200.0 mg/kg/injection, schedule: Q01DX009 (ip), vehicle: saline with Tween-80): 0 of 6
- survivor count [10]: 5 of 6
- survivor count (dose: 400.0 mg/kg/injection, schedule: Q01DX001 (ip), vehicle: saline with Tween-80): 1 of 6

Compound: CC(C)[S][Pb]([c]1ccccc1)([c]1ccccc1)[c]1ccccc1
- survivor count (dose: 25.0 mg/kg/injection, schedule: Q04DX002 (ip), vehicle: gum acacia): 3 of 3
- survivor count (dose: 50.0 mg/kg/injection, schedule: Q04DX002 (ip), vehicle: gum acacia): 3 of 3
- survivor count (dose: 100.0 mg/kg/injection, schedule: Q04DX002 (ip), vehicle: gum acacia): 1 of 3 and 3 of 3
- survivor count (dose: 200.0 mg/kg/injection, schedule: Q04DX002 (ip), vehicle: gum acacia): 0 of 3
- survivor count (dose: 400.0 mg/kg/injection, schedule: Q04DX002 (ip), vehicle: gum acacia): 0 of 3

Compound: CSc1ccc(NC(=O)N(CCCl)N=O)cc1
- T/C (dose: 1.0 mg/kg/injection, schedule: Q01DX009 (ip), vehicle: other): 147 % of control [5 of 6 alive]
- T/C (dose: 3.0 mg/kg/injection, schedule: Q01DX001 (ip), vehicle: carboxymethylcellulose (CMC)): 128 % of control
- T/C (dose: 5.5 mg/kg/injection, schedule: Q01DX001 (ip), vehicle: carboxymethylcellulose (CMC)): 146 % of control
- T/C (dose: 6.0 mg/kg/injection, schedule: Q01DX009 (ip), vehicle: carboxymethylcellulose (CMC)): 130 % of control
- T/C (dose: 12.5 mg/kg/injection, schedule: Q01DX001 (ip), vehicle: carboxymethylcellulose (CMC)): 142 % of control
- survivor count (dose: 18.0 mg/kg/injection, schedule: Q01DX009 (ip), vehicle: carboxymethylcellulose (CMC)): 6 of 6
- T/C (dose: 27.0 mg/kg/injection, schedule: Q01DX001 (ip), vehicle: other): 127 % of control
- survivor count (dose: 36.0 mg/kg/injection, schedule: Q01DX009 (ip), vehicle: carboxymethylcellulose (CMC)): 0 of 6
- survivor count (dose: 50.0 mg/kg/injection, schedule: Q01DX001 (ip), vehicle: carboxymethylcellulose (CMC)): 2 of 4

Compound: O=[N+]([O-])c1cc([N+](=O)[O-])c(Br)cc1F
- survivor count (dose: 10.0 mg/kg/injection, schedule: Q01DX009 (ip), vehicle: Klucel (hydroxypropylcellulose) (HPC)): 6 of 6
- survivor count (dose: 100.0 mg/kg/injection, schedule: Q04DX002 (ip), vehicle: Klucel (hydroxypropylcellulose) (HPC)): 0 of 3
- survivor count (dose: 200.0 mg/kg/injection, schedule: Q04DX002 (ip), vehicle: Klucel (hydroxypropylcellulose) (HPC)): 0 of 3
- survivor count [4]: 0 of 3

Compound: CNC(=S)Nc1ccccc1
- survivor count (dose: 400.0 mg/kg/injection, schedule: Q04DX003 (ip), vehicle: carboxymethylcellulose (CMC)): 1 of 6
